These results are taken from PMC3787022, “Small Angle X-Ray Scattering Studies of Mitochondrial Glutaminase C Reveal Extended Flexible Regions, and Link Oligomeric State with Enzyme Activity” (PLoS ONE, 2013).

For the experiment, the target named is Glutaminase C wildtype construct (mouse GAC, residues 73-603) (mouse) (UniProt D3Z7P3). In words: TEM; TEM images of higher order oligomers (Figure S10 in File S1); conditions not shown; both purified.

These are yes or no findings as the source states them, for the method shown. Some binding calls cover weakened binding; strength is not graded here.

B1: Glutaminase C wildtype construct (mouse GAC, residues 73-603) (enzyme, UniProt D3Z7P3-2 73-603, looked up)
chain: SSSPSEILQELGKGGTPPQQQQQQQQQPGASPPAAPGPKDSPGETDAFGNSEGKEMVAAGDNKIKQGLLPSLEDLLFYTIAEGQEKIPVHKFITALKSTGLRTSDPRLKECMDMLRLTLQTTSDGVMLDKDLFKKCVQSNIVLLTQAFRRKFVIPDFMSFTSHIDELYESAKKQSGGKVADYIPQLAKFSPDLWGVSVCTVDGQRHSIGDTKVPFCLQSCVKPLKYAIAVNDLGTEYVHRYVGKEPSGLRFNKLFLNEDDKPHNPMVNAGAIVVTSLIKQGVNNAEKFDYVMQFLNKMAGNEYVGFSNATFQSERESGDRNFAIGYYLKEKKCFPEGTDMVGILDFYFQLCSIEVTCESASVMAATLANGGFCPITGERVLSPEAVRNTLSLMHSCGMYDFSGQFAFHVGLPAKSGVAGGILLVVPNVMGMMCWSPPLDKMGNSVKGIHFCHDLVSLCNFHNYDNLRHFAKKLDPRREGGDQRHSFGPLDYESLQQELALKDTVWKKVSPESSDDTSTTVVYRMESLGERS
notes: GAC isoform of 603 residues; also called GACwt; GAC wildtype; source: expressed from a pET28a vector, purified (Ni-column, anion-exchange, gel filtration); not shown: histidine tag, N-terminal, cleaved
As to B1, the binding result is reported as “binds”.
